Consider three molecules from PMC7681008.

Protein sequences, listed by entry. Tags and fused reporters are not part of them.
UniProt P61244: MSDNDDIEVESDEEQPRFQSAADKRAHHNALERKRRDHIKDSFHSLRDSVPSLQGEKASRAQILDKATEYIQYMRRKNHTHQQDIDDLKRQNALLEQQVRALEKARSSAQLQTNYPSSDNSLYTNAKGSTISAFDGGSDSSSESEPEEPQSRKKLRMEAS
UniProt Q05195: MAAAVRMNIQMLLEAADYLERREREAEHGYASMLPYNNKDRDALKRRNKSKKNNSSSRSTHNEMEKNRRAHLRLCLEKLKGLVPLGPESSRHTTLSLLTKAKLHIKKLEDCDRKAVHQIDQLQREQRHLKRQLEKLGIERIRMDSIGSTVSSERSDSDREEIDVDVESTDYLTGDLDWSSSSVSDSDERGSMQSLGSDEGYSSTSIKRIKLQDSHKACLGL

These are yes or no findings as the source states them, for the method shown. In cells and extracts the contact can be indirect. Some binding calls cover weakened binding; strength is not graded here. Where a sequence is shown, tags or fusion partners need not be part of it.

B1: MAX-like protein X (MLX), Myc-tagged (protein, UniProt O08609 1-298)
chain: MTEPGASPEDPWVKASFADAHAGEGRAGRARARRGSGRRGAPQLSPESPLLSGARGCREDSSHPACAKVEYAYSDNSLDPGLFVESTHKGSVVSRANSIGSTSASSVPNTDDEDSDYQQEAYKESYKDRRRRAHTQAEQKRRDAIKRGYDDLQTIVPTCQQQDFSIGSQKLSKAIVLQKTIDYIQFLHKEKKKQEEEVSTLRKDVTALKIMKVNYEQIVKAHQDNPHEGEDQVSDQVKFNVFQGIMDSLFQSFNASISVASFQELSACVFSWIEEHCEPQTLREIVIGVLHQLKNQLY

The assay concerns the target T1, carbohydrate response element-binding protein (ChREBP), Flag-tagged (mouse) (UniProt Q99MZ3).
T1 sequence: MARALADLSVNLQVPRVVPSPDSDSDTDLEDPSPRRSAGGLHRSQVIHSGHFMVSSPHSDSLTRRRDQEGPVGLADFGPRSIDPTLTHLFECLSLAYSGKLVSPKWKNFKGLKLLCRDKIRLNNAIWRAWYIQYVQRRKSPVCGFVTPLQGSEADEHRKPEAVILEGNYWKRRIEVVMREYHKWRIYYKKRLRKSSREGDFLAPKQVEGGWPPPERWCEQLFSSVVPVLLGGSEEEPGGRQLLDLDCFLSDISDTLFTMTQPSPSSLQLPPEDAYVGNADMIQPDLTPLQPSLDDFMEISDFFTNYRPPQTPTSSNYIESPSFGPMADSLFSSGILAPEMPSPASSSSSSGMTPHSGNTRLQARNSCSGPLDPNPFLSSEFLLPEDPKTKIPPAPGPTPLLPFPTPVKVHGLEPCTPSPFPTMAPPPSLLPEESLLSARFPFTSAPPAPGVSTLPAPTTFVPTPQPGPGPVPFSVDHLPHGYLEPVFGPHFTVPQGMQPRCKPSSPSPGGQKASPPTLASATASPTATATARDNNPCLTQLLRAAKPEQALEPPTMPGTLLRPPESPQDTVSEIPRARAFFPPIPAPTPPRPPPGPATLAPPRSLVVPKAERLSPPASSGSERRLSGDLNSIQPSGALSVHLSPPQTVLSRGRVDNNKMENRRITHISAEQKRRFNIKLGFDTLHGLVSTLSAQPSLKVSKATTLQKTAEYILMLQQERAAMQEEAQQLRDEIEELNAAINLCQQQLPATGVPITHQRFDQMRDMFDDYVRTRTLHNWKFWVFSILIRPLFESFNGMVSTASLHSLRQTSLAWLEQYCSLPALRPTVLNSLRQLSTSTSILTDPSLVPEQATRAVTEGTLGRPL
The assay can be described thus: co-IP; podocytes cotransfected with Flag-ChREBP, Myc-Mlx, HA-Max and HA-Mxd1 singly or in combinations; lysis in TNMG buffer (50 mM Tris-HCl pH 8.0, 50 mM NaCl, 5 mM MgCl2, 10% glycerol, 0.5% Nonidet P-40); IP with magnetic anti-Flag M2 beads, elution with 100 ug/ml 3x Flag peptide; immunoblots against HA and Myc; HA-MXD1 and HA-MAX tested with and without coexpressed Myc-Mlx. Background: A western blot detects proteins with antibodies after separation by electrophoresis.
As for “Myc-associated factor X (MAX), HA-tagged (from UniProt P61244 1-160)”, the binding entry is “binds”.
“MAX dimerization protein 1 (MXD1), HA-tagged (from UniProt Q05195 1-221)”: the binding result is “binds”.
The result for B1 reads “binds”.
